Test results published in US20260184713A1, “KINASE INHIBITORS” (The United States of America, as represented by the …, priority 2022, published 2026).

System: panel of 370 human protein kinases
Assay: pan human kinome profiling (370 kinases)
Details: 2 μM; panel of 370 kinases

With Cn1cnc(Br)c1C1=CN(c2ncnc3nc[nH]c23)CCS1 [Compound 1a, Aplithianine A1] the “number of kinases totally inactive (<5% inhibition)” value was 65 and the “number of kinases with >50% inhibition” value was 101.
